Drawing on the supplement of paper PMC10849652, this text covers log2 fold change for 27 targets.

Sequences of proteins named here, by UniProt entry; tags and fusion partners are left off. A change or cut given only in a name is not applied to a line headed by its entry.
UniProt Q5JUQ0: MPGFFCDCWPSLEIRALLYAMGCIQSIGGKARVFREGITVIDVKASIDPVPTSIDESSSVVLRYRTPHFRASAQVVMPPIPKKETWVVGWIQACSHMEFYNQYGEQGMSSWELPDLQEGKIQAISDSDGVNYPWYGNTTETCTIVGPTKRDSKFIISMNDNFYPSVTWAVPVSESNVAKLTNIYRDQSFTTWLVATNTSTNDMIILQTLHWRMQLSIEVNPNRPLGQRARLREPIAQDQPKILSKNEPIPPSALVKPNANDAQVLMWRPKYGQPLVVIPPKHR
UniProt P49327, whole entry, looked up: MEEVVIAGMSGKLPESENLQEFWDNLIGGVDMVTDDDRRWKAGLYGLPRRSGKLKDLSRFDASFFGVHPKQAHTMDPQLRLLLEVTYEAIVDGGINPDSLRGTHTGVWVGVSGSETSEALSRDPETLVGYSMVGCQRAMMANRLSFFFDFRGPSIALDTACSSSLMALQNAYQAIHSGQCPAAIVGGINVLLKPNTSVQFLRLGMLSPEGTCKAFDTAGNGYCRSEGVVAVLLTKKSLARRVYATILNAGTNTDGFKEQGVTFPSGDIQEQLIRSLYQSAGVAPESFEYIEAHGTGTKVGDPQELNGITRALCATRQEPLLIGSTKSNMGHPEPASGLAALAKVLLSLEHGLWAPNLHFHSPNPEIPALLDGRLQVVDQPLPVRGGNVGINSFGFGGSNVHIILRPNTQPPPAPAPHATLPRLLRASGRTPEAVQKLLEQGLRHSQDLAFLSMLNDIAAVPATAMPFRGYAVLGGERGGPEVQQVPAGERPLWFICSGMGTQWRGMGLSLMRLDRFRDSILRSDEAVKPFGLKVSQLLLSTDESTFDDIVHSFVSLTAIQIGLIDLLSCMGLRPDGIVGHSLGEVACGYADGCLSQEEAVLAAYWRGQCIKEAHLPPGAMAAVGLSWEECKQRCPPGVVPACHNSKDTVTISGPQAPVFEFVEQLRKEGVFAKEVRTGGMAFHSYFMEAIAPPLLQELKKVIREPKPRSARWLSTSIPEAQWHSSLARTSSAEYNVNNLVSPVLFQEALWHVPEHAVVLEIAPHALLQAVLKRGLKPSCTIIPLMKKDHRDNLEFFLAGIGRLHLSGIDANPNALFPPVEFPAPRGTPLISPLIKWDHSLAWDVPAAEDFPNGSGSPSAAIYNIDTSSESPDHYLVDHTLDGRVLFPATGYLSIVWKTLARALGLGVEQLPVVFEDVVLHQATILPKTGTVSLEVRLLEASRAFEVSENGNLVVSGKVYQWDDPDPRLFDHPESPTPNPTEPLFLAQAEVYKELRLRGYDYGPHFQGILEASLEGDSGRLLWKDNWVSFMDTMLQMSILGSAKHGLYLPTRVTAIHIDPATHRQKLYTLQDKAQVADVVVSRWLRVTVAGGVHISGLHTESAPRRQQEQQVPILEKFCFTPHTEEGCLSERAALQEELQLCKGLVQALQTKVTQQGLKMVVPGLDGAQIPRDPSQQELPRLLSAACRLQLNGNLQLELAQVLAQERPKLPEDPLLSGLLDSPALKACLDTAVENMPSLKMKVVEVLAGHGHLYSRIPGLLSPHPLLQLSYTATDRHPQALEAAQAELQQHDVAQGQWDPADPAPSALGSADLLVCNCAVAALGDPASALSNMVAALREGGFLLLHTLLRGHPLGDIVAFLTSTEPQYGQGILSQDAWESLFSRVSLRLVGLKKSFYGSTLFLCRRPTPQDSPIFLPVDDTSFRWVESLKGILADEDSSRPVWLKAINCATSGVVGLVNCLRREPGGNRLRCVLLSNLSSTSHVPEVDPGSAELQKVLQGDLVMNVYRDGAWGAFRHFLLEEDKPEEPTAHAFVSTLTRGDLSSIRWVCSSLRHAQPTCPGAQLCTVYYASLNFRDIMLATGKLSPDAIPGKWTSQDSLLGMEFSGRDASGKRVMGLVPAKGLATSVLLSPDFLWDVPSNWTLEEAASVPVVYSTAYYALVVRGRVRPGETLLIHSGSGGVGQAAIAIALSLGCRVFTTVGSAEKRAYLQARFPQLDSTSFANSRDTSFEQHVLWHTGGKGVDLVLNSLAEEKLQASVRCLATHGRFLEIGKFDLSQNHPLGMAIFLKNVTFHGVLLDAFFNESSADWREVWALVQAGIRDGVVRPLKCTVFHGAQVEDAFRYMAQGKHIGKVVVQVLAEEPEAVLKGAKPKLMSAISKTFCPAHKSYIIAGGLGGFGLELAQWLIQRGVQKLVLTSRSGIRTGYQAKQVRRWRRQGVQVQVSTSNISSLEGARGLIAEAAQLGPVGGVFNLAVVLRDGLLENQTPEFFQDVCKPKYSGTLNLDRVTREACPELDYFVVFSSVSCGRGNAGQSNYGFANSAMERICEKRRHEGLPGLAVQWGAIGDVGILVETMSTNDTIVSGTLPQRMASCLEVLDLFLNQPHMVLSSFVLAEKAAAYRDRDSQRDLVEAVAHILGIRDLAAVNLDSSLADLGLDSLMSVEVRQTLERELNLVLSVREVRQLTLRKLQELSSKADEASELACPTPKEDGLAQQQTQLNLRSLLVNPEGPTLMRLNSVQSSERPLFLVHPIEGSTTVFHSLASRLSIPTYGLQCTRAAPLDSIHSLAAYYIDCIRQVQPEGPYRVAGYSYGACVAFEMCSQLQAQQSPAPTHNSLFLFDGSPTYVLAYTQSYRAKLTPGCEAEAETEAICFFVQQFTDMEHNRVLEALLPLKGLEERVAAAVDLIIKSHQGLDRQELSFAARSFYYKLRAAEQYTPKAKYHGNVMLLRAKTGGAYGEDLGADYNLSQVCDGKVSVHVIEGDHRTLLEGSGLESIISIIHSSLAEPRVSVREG
UniProt Q14153: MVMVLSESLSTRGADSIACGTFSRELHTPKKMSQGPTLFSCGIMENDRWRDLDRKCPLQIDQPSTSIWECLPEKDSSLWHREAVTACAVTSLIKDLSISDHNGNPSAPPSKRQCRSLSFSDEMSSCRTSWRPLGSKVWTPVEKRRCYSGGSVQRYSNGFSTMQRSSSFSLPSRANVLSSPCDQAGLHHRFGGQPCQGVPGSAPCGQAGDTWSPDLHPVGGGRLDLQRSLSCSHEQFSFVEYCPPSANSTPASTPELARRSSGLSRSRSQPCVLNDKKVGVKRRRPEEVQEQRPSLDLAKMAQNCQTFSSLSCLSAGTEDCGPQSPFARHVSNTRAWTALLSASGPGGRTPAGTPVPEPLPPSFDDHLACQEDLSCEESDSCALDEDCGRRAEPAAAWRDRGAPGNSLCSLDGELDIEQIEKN
UniProt P31995: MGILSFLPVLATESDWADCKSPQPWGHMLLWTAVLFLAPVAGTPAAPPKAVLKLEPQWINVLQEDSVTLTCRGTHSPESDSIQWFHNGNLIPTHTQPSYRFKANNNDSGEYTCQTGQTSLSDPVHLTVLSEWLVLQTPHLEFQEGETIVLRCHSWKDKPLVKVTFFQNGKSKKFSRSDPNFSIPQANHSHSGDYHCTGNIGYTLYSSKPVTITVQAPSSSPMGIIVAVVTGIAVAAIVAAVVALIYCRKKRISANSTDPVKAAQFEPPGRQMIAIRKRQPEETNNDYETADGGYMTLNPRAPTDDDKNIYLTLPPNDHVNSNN
UniProt Q9H0X4: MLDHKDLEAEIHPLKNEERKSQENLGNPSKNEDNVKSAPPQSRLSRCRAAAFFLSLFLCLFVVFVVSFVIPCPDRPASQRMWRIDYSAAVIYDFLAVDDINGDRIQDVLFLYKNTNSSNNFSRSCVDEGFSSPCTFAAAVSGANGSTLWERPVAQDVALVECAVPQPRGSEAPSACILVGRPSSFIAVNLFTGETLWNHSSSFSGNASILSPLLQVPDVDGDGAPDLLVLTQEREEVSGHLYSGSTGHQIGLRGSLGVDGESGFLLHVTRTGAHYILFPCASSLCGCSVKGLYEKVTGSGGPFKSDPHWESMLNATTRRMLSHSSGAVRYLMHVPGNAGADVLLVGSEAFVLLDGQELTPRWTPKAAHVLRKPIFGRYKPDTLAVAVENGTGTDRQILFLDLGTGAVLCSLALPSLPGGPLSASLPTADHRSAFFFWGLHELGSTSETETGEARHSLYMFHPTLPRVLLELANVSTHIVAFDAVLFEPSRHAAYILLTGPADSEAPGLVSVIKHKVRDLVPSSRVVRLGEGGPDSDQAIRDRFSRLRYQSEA
UniProt Q6PIJ6: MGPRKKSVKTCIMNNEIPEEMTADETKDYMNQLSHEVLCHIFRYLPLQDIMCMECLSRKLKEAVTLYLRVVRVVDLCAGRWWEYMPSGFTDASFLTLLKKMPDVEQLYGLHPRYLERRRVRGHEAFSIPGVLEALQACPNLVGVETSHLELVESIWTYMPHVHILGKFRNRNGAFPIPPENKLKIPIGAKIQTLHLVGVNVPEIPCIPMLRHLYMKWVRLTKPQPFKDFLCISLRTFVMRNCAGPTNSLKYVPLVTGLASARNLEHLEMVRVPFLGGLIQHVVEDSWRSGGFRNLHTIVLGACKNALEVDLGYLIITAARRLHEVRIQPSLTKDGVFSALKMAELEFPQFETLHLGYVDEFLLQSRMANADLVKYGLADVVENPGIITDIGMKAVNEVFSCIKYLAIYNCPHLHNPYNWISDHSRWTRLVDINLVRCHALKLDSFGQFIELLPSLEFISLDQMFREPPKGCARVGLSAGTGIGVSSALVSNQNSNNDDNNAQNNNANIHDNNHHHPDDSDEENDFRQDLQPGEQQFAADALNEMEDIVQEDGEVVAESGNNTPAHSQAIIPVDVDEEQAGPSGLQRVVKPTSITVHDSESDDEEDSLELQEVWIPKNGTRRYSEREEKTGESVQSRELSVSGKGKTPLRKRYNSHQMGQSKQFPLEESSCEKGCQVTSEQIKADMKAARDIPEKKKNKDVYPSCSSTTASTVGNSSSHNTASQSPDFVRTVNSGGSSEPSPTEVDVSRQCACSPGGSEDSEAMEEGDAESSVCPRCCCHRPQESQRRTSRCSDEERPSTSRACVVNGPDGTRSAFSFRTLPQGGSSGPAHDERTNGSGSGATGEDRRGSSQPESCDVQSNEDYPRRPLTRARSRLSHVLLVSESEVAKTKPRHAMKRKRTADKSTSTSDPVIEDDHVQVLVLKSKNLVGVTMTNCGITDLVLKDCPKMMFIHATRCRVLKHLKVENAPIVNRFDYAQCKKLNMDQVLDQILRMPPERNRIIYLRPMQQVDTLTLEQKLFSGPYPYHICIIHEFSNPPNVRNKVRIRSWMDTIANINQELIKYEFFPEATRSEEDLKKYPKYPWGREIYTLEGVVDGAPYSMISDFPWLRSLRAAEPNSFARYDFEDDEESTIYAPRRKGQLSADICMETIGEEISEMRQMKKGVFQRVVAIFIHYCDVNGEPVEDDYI
UniProt P09038, whole entry, looked up: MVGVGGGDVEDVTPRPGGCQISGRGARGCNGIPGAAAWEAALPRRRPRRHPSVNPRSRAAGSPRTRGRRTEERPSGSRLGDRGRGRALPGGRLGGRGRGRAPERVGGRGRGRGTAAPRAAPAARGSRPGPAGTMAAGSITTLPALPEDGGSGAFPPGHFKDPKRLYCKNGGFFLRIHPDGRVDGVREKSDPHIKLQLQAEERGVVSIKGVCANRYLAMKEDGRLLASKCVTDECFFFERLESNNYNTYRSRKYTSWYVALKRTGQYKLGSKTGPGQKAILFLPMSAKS
UniProt Q0JRZ9: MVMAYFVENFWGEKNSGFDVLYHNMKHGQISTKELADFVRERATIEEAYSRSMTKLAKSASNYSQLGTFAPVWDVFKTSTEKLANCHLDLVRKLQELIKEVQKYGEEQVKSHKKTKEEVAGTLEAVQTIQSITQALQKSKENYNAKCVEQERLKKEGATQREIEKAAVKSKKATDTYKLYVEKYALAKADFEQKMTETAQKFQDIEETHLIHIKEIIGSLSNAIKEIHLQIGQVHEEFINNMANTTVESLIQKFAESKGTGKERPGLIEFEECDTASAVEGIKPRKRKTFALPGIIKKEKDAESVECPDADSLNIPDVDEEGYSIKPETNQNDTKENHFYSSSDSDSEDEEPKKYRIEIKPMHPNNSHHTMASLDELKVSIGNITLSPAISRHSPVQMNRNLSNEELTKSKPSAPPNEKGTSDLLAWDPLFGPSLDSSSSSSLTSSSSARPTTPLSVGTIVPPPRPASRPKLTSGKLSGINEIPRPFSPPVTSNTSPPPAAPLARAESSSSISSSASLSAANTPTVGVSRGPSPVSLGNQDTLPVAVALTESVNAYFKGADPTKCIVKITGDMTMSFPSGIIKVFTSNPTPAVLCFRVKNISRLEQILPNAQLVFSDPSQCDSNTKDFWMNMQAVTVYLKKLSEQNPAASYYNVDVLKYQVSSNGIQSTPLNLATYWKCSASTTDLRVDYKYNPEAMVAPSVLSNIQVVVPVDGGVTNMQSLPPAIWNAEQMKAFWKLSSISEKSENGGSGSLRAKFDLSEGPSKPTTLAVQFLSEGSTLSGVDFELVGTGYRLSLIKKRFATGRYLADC
UniProt P62942, whole entry, looked up: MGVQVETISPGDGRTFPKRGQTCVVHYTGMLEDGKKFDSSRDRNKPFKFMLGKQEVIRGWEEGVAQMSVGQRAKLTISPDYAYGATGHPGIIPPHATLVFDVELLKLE
UniProt Q9Y421: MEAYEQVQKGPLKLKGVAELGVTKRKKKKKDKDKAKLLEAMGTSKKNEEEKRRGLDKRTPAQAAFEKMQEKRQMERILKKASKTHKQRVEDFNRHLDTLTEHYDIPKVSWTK

The other results are listed elsewhere or left out.

Compound in the assay: c1cn2cc(-c3ccc4cn[nH]c4c3)nc(Nc3ccc(N4CCOCC4)cc3)c2n1 [entospletinib]
Put plainly: log2 fold change, soluble protein after heating vs DMSO (PISA); higher = thermal stabilisation; K562 cells, 10 uM, 30 min; active = over 0.2 and 3.5 SD of the protein, either way, in both replicates (recomputed). The gist of the method: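 K562 cells at 2×10^6 cells/mL were treated for 30 min with 10 μM compound, and aliquots were heated for 3 min over 48°C-58°C before pooling. Extraction used PBS with 0.5% NP-40 at 4°C, and soluble protein was the supernatant after 21,000xg for 90 min, measured by TMTpro 16plex LC-MS/MS with channel sums equalised. Thermal stability values, relative to control samples and from duplicates, are log2 fold changes.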
FAM78A (UniProt Q5JUQ0): the log2 fold change is inactive: -0.083.

Turning to FBH1 isoform 2 (UniProt Q8NFZ0), the log2 fold change was inactive: 0.011.

Consider FASN (UniProt P49327), for which the log2 fold change is inactive: -0.016.

FDX2 (UniProt Q6P4F2): the log2 fold change was inactive: 0.053.

Take FAM53B (UniProt Q14153): the log2 fold change was inactive: 0.08.

Take FAM76B (UniProt Q5HYJ3): the log2 fold change is inactive: 0.068.

Take FCGR2C (UniProt P31995): the log2 fold change is inactive: 0.03.

FITM2 (UniProt Q8N6M3): the log2 fold change was inactive: -0.012.

As for FLVCR1 (UniProt Q9Y5Y0), the log2 fold change was inactive: -0.035.

Consider FLT1 (UniProt P17948), for which the log2 fold change was inactive: 0.088.

As for FAT4 (UniProt Q6V0I7), the log2 fold change was inactive: -0.077.

On to FBXO30 (UniProt Q8TB52), for which the log2 fold change was inactive: -0.025.

As for FASTKD2 (UniProt Q9NYY8), the log2 fold change is inactive: -0.019.

In the case of FBXL12 (UniProt Q9NXK8), the log2 fold change is inactive: -0.008.

Regarding FAM234A (UniProt Q9H0X4), the log2 fold change was inactive: 0.048.

With FN1 isoform 1 (UniProt P02751), the log2 fold change was inactive: 0.171.

FBXO38 (UniProt Q6PIJ6): the log2 fold change was inactive: -0.004.

As to FGF2 (UniProt P09038), the log2 fold change is inactive: -0.002.

For the target FCHO2 (UniProt Q0JRZ9), the log2 fold change is inactive: 0.111.

In the case of FLYWCH2 (UniProt Q96CP2), the log2 fold change was inactive: -0.085.

FKBP1A (UniProt P62942): the log2 fold change was inactive: 0.072.

FKBP8 isoform 2 (UniProt Q14318): the log2 fold change was inactive: 0.036.

With FLOT1 (UniProt O75955), the log2 fold change was inactive: 0.173.

Regarding FBXO22 (UniProt Q8NEZ5), the log2 fold change is inactive: -0.023.

Regarding FAM32A (UniProt Q9Y421), the log2 fold change is inactive: 0.051.

With FN3KRP (UniProt Q9HA64), the log2 fold change is inactive: -0.017.

For the target FANCA (UniProt O15360), the log2 fold change is inactive: 0.135.
